Measurements reported in PMC4873792.
No constants are given. Whether binding was seen depends on the method and setting. Binding seen in cells or lysates may run through a third protein. Some entries that bind do so weakly or less than the wild type. Where a sequence is shown, tags or fusion partners need not be part of it.

Protein sequences, listed by entry. Tags and fused reporters are not part of them.
UniProt Q8N608: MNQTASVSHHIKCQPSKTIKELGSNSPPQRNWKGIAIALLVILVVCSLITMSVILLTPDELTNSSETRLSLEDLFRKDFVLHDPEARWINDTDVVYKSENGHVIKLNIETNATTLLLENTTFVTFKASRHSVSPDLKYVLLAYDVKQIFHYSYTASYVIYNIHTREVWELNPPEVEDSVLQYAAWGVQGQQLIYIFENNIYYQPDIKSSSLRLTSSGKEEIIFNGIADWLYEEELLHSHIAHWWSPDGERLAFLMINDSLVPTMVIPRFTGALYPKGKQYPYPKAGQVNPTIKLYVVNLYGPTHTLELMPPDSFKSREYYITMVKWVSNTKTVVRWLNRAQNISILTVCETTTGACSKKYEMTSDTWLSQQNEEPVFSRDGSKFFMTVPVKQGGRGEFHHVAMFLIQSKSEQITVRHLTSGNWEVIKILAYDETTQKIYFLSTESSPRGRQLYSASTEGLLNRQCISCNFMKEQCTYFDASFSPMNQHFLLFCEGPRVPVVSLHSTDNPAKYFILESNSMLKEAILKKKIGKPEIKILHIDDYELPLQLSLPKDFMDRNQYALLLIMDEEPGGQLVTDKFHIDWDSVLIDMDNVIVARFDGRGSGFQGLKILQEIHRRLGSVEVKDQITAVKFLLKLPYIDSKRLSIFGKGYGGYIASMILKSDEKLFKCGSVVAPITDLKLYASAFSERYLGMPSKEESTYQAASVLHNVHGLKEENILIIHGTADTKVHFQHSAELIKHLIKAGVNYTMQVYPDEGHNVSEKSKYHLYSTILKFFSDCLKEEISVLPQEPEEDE
UniProt P27487: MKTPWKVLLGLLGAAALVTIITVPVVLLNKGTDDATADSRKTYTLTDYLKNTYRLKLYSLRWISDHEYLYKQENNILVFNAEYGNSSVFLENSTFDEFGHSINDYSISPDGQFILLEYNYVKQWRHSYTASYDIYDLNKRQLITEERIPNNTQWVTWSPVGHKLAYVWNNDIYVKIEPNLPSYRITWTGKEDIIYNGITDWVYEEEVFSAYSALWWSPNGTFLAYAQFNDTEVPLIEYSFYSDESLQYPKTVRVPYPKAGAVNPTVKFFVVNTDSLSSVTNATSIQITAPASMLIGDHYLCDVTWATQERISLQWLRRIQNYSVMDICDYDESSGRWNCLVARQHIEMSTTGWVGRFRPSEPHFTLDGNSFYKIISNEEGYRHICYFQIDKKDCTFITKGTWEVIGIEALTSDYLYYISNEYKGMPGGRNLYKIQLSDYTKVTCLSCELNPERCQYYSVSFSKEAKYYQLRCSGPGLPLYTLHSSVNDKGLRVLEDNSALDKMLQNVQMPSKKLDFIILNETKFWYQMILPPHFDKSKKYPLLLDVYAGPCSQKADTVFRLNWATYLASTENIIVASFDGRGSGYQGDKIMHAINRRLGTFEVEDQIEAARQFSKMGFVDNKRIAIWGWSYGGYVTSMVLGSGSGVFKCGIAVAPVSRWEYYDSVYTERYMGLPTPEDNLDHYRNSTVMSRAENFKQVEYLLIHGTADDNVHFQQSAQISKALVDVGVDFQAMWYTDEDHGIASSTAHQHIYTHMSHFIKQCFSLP

Experiments:
[1] = molecular target: N-terminally Flag-tagged human DPP10 (human) (UniProt Q8N608); test: co-IP; HEK293 cells co-transfected with Flag-tagged DPP cDNA (8 ug) and Myc-Kv4.3 cDNA (2 ug); extract in 20 mM Tris-HCl pH 7.4, 0.2 M NaCl, 1% Triton X-100, 1 mM EDTA; precipitation with anti-Flag antibody-conjugated resin, immunoblot
[2] = molecular target: N-terminally Flag-tagged human DPP4 (human) (UniProt P27487); test: as above

binding [1]: binds | binding [2]: no binding
B1: Myc-tagged rat Kv4.3 (protein, UniProt Q62897 1-655)
chain: MAAGVAAWLPFARAAAIGWMPVANCPMPLAPADKNKRQDELIVLNVSGRRFQTWRTTLERYPDTLLGSTEKEFFFNEDTKEYFFDRDPEVFRCVLNFYRTGKLHYPRYECISAYDDELAFYGILPEIIGDCCYEEYKDRKRENAERLMDDNESENNQESMPSLSFRQTMWRAFENPHTSTLALVFYYVTGFFIAVSVITNVVETVPCGTVPGSKELPCGERYSVAFFCLDTACVMIFTVEYLLRLFAAPSRYRFIRSVMSIIDVVAIMPYYIGLVMTNNEDVSGAFVTLRVFRVFRIFKFSRHSQGLRILGYTLKSCASELGFLLFSLTMAIIIFATVMFYAEKGSSASKFTSIPASFWYTIVTMTTLGYGDMVPKTIAGKIFGSICSLSGVLVIALPVPVIVSNFSRIYHQNQRADKRRAQKKARLARIRVAKTGSSNAYLHSKRNGLLNEALELTGTPEEEHMGKTTSLIESQHHHLLHCLEKTTGLSYLVDDPLLSVRTSTIKNHEFIDEQMFEQNCMESSMQNYPSTRSPSLSSHSGLTTTCCSRRSKKTTHLPNSNLPATRLRSMQELSTIHIQGSEQPSLTTSRSSLNLKADDGLRPNCKTSQITTAIISIPTPPALTPEGESRPPPASPGPNTNIPSITSNVVKVSVL
